Assay results taken from US20150275215.

Molecular target: PDGFRbeta (endogenous, U87MG / U87MGΔEGFR cells) (Homo sapiens) (UniProt P09619)
Experiment: activity in cells
Conditions: 200 nM aptamer, protein on the cell surface

| Sequence | functional effect of the aptamer (2'-F pyrimidines, no effect on PDGF-BB-induced PDGFRβ phosphorylation) | functional effect of the aptamer (2'-F all pyrimidines, inhibition of PDGF-BB-induced PDGFRβ tyrosine phosphorylation at 5 min, U87MG and U87MGΔEGFR, variant of Gint4) |
| --- | --- | --- |
| UUCGUACCGGGUAGGUUGGCUUGCACAUAGAACGUGUCA [unrelated aptamer] | not active | – |
| UGUCGUGGGGCAUCGAGUAAAUGCAAUUCGACA [Gint4.T] | – | 70 % inhibition |

Construct, isoform or probe ends are uncertain for at least one entry. Negatives hold for the conditions tested.
